Consider 1 molecule from US20150166963A1.

Protein sequences, listed by entry. Tags and fused reporters are not part of them. Residues count along the entry.
UniProt P46531, residues 1426-1731: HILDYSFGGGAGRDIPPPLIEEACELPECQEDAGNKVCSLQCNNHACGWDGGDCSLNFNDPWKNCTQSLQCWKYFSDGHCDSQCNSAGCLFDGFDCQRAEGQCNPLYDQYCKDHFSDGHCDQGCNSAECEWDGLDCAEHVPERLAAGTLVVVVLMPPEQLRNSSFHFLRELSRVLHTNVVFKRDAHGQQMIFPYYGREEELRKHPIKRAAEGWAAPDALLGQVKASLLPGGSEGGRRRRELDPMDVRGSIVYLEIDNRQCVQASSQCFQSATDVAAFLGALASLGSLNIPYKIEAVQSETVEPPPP

These are yes or no findings as the source states them, for the method shown. Some entries that bind do so weakly or less than the wild type.

This assay deals with recombinant human Notch1 protein (human) (UniProt P46531). The assay is described as follows: ELISA of HEK 293 conditioned media for Notch1 binding activity; humanized heavy chain with murine 52M51 light chain. (In general: An ELISA detects its analyte on a solid surface through an enzyme-linked reagent.)

B1: 52M51-H4 humanized heavy chain cotransfected with the murine 52M51 light chain (antibody, human IgG2, V domains shown)
VH: QVQLVQSGAEVKKPGASVKISCKVSGYTLRGYWIEWVRQAPGKGLEWIGQILPGTGRTNYNEKFKGRVTMTADTSTDTAYMELSSLRSEDTAVYYCARFDGNYGYYAMDYWGQGTTVTVSS
VL: QAVVTQESALTTSPGETVTLTCRSSTGAVTTSNYANWVQEKPDHLFTGLIGGTNNRAPGVPARFSGSLIGDKAALTITGAQTEDEAIYFCALWYSNHWVFGGGTKLTVLG
Regarding B1, the binding entry is on record as “binds”.
